Laboratory results as given in paper PMC10864363.
Results are given in words; binding and its absence hold for the method and conditions named. In cells and extracts the contact can be indirect. These calls come from enrichment with a bait or labelling near it, and not all partners need be listed.

By UniProt entry, the sequences of proteins in these tests, tags left out.
UniProt Q2MHE5: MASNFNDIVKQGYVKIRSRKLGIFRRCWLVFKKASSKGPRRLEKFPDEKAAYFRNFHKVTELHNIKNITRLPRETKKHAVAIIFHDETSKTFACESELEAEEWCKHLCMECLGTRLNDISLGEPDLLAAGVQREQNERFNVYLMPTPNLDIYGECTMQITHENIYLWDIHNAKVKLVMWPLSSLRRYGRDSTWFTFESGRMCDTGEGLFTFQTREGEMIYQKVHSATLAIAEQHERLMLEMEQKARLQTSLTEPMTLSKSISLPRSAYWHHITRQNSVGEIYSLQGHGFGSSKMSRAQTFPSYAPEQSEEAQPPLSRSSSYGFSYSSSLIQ
UniProt Q9JHU4: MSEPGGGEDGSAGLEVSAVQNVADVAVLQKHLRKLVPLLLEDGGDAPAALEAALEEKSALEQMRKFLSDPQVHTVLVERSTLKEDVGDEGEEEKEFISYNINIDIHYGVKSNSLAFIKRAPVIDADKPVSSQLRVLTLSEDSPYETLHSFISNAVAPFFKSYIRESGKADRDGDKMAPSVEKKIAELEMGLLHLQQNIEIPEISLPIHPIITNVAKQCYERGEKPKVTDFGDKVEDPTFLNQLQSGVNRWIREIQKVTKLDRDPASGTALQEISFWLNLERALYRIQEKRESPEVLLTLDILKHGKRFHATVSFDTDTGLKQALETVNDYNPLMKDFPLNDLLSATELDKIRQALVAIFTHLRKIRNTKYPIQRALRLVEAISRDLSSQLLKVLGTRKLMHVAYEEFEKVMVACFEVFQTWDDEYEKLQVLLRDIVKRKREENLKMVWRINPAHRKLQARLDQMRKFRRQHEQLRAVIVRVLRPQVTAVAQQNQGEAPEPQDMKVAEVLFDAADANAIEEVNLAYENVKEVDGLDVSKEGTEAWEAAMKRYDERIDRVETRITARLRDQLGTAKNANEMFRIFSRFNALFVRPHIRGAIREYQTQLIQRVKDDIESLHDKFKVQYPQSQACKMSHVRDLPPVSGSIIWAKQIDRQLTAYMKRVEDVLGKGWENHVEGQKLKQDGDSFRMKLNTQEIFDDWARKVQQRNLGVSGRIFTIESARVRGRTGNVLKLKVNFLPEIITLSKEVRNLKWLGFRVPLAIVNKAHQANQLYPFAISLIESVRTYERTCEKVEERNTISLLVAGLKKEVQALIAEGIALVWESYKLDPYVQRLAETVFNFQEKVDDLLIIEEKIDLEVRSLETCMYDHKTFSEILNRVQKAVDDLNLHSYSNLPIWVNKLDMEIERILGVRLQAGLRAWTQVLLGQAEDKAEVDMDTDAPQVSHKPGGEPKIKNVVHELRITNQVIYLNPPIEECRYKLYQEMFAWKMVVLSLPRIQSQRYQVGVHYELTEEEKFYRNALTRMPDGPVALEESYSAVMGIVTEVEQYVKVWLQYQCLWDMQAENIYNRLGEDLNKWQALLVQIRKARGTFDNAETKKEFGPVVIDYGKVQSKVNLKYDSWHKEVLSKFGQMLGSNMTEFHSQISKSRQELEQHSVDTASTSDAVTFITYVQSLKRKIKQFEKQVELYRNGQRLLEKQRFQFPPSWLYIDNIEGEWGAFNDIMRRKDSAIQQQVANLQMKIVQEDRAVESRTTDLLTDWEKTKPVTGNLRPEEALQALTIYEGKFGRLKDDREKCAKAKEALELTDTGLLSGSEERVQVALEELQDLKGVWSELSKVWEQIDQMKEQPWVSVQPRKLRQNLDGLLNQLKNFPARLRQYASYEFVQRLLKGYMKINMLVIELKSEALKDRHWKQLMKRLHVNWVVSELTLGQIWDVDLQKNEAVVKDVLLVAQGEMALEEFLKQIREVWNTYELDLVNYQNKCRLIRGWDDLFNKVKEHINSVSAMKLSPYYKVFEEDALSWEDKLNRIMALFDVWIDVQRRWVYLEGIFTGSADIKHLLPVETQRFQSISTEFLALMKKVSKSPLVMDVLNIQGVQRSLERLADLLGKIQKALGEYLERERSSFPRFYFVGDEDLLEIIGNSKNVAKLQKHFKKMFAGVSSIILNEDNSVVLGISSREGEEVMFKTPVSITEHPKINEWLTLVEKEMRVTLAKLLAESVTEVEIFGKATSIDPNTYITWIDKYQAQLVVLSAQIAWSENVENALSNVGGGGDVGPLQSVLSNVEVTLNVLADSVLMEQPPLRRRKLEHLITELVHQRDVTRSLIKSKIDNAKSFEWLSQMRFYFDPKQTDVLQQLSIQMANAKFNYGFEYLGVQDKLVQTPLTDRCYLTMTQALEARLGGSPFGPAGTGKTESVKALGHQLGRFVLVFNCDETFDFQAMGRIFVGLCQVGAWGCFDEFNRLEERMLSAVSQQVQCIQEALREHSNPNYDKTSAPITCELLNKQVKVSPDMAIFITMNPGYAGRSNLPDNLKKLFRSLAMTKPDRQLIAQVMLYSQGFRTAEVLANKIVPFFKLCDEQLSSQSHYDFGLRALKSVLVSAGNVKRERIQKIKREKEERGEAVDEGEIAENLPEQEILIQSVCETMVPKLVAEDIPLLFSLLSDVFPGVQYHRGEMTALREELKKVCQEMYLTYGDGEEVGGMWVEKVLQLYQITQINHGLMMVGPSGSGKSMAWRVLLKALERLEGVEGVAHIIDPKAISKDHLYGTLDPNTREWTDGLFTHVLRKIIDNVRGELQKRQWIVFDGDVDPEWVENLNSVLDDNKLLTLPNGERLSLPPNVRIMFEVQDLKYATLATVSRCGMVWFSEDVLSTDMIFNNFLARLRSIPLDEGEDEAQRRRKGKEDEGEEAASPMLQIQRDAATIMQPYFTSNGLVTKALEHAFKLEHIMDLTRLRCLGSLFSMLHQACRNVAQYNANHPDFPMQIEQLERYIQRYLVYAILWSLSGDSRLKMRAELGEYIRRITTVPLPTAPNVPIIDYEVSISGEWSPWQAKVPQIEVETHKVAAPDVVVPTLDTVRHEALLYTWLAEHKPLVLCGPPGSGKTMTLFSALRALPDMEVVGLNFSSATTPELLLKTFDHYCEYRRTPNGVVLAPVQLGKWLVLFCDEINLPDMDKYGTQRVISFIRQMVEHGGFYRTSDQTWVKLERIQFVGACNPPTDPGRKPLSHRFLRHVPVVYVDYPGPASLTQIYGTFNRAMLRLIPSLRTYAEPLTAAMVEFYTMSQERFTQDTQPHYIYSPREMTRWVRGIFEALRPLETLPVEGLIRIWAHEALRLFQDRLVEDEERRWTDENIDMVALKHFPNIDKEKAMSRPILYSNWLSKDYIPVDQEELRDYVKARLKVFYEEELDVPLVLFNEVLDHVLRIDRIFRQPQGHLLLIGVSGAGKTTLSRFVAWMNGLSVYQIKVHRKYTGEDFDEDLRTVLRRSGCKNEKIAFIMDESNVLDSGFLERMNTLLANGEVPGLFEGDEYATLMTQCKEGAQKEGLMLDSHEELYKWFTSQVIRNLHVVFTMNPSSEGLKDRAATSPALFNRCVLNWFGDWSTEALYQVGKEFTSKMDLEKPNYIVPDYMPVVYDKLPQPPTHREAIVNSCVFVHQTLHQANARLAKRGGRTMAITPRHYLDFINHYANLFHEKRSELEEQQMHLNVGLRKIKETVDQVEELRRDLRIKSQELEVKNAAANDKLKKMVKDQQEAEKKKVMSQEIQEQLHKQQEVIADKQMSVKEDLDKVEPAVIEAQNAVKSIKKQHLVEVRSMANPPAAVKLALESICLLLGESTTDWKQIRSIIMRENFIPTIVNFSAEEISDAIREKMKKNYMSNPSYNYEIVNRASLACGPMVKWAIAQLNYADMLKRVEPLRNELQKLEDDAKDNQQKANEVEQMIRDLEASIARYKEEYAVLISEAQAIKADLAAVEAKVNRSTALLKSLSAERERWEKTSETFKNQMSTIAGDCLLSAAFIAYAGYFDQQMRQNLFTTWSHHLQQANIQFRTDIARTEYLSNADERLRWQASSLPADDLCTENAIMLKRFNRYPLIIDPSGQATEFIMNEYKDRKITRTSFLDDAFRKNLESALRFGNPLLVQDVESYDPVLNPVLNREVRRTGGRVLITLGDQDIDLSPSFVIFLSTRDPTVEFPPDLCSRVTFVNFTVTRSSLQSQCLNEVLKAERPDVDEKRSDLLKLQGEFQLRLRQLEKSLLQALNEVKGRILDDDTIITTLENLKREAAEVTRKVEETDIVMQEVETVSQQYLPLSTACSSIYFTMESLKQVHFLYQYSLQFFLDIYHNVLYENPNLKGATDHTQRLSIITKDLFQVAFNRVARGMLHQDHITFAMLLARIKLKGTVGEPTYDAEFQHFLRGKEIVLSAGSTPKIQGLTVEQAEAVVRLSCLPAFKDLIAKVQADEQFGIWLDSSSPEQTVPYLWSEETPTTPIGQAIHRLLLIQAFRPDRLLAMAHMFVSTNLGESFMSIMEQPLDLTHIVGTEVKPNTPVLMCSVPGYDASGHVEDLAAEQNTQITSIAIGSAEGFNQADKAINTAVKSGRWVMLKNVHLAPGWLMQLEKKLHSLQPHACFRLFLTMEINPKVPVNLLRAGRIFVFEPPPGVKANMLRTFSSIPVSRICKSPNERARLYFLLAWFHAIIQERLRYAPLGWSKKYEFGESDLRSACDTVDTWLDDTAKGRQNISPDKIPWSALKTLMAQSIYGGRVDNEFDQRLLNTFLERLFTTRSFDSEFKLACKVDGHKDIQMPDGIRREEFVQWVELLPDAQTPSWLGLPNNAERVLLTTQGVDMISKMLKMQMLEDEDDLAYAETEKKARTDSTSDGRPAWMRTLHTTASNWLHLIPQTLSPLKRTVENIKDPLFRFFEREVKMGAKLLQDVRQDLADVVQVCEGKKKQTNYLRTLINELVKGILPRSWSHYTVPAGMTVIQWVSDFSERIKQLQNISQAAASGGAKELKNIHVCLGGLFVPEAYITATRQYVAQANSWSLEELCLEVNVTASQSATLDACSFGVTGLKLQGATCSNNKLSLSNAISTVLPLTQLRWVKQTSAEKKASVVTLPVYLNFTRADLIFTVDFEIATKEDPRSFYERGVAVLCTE
UniProt P10637: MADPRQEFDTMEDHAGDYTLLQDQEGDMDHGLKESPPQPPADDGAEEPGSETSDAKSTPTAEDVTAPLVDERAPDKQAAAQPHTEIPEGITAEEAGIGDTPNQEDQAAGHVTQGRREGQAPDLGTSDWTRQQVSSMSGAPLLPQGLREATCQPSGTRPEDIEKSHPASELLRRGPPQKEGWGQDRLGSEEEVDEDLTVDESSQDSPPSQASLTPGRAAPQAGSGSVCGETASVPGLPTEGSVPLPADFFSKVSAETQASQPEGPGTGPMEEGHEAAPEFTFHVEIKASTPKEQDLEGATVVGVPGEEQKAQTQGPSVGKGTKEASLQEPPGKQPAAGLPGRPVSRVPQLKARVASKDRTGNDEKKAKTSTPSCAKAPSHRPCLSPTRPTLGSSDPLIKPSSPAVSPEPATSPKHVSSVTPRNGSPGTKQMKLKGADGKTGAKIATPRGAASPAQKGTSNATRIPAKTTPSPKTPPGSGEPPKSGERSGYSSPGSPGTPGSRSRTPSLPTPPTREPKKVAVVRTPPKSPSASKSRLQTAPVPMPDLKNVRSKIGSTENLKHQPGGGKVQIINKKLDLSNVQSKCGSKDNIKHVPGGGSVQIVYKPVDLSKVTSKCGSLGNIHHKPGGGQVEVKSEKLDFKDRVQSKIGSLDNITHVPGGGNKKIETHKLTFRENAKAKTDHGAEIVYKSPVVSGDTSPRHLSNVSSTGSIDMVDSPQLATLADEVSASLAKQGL

target: GST-Full-length-DOK6 (UniProt Q2MHE5); assay: affinity purification with mass spectrometry; GST-DOK6 held on glutathione Sepharose beads, incubated with E18.5 mouse forebrain lysate overnight at 4 °C; GST alone as negative control; SDS-PAGE, silver staining, mass spectrometry; only the target purified

| binding | Molecule |
| --- | --- |
| binds | cytoplasmic dynein 1 heavy chain 1 (Dync1h1) (from UniProt Q9JHU4 1-4644) |
| binds | microtubule-associated protein 1B (MAP1B/MAP5) (from UniProt P14873 1-2464) |
| binds | microtubule-associated protein tau (MAPT) (from UniProt P10637 1-733) |
| binds | brain acid soluble protein 1 (Basp1) (protein, UniProt Q91XV3 1-226) MGGKLSKKKKGYNVNDEKAKDKDKKAEGAGTEEEGTPKESEPQAAADATEVKESTEEKPKDAADGEAKAEEKEADKAAAAKEEAPKAEPEKSEGAAEEQPEPAPAPEQEAAAPGPAAGGEAPKAGEASAESTGAADGAAPEEGEAKKTEAPAAAGPEAKSDAAPAASDSKPSSAEPAPSSKETPAASEAPSSAAKAPAPAAPAAAEPQAEAPAAAASSEQSVAVKE |
| binds | drebrin 1 (DBN1) (protein, UniProt Q9QXS6 1-706) MAGVSFSGHRLELLAAYEEVIREESAADWALYTYEDGSDDLKLAASGEGGLQELSGHFENQKVMYGFCSVKDSQAALPKYVLINWVGEDVPDARKCACASHVAKVAEFFQGVDVIVNASSVEDIDAGAIGQRLSNGLARLSSPVLHRLRLREDENAEPVGTTYQKTDAAVEMKRINREQFWEQAKKEEELRKEEERKKALDARLRFEQERMEQERQEQEERERRYREREQQIEEHRRKQQSLEAEEAKRRLKEQSIFGDQRDEEEESQMKKSESEVEEAAAIIAQRPDNPREFFRQQERVASASGGSCDAPAPAPFNHRPGRPYCPFIKASDSGPSSSSSSSSSPPRTPFPYITCHRTPNLSSSLPCSHLDSHRRMAPTPIPTRSPSDSSTASTPIAEQIERALDEVTSSQPPPPPPPPPPTQEAQETTPSLDEELSKEAKVTAAPEVWAGCAAEPPQAQEPPLLQSSPLEDSMCTESPEQAALAAPAEPAASVTSVADVHAADTIETTTATTDTTIANNVTPAAASLIDLWPGNGEEASTLQAEPRVPTPPSGAEASLAEVPLLNEAAQEPLPPVGEGCANLLNFDELPEPPATFCDPEEEVGETLAASQVLTMPSALEEVDQVLEQELEPEPHLLTNGETTQKEGTQASEGYFSQSQEEEFAQSEEPCAKVPPPVFYNKPPEIDITCWDADPVPEEEEGFEGGD |
